Results from PMC8111780, “NMR structural analysis of the yeast cytochrome c oxidase subunit Cox13 and its interaction with ATP” (BMC Biology, 2021).
No constants are given. Whether binding was seen depends on the method and setting. Some binding calls cover weakened binding; strength is not graded here.

Tests used:
[1] = biological target: Cox13 (cytochrome c oxidase subunit Cox13) from S. cerevisiae, refolded in DPC micelles (S. cerevisiae) (UniProt P32799); assay: solution NMR structure (intermolecular NOEs); 1:1 mixture of 15N,13C-labeled and unlabeled Cox13, mixed at the level of inclusion bodies; 13C/15N-filtered/edited NOESY-HSQC; 20 mM NaPi pH 6.5, 50 mM L-Arg, 50 mM L-Glu, 1 mM DTT, 30 mM DPC-d38, 40 °C; both purified
[2] = biological target: Cox13 (cytochrome c oxidase subunit Cox13) from S. cerevisiae, refolded in DPC micelles (S. cerevisiae) (UniProt P32799); assay: SDS-PAGE; refolded, purified Cox13; monomer runs at an apparent 16 kDa, and a fraction consistent with a dimer is seen; both purified

B1: Cox13 (cytochrome c oxidase subunit Cox13) from S. cerevisiae, refolded in DPC micelles (natural protein)
chain: ASSLPPNALKPAFGPPDKVAAQKFKESLMATEKHAKDTSNMWVKISVWVALPAIALTAVNTYFVEKEHAEHREHLKHVPDSEWPRDYEFMNIRSKPFFWGDGDKTLFWNPVVNRHIEHDD
notes: Cox13, cytochrome c oxidase subunit of S. cerevisiae; the gene was cloned into pET-28a; predicted mass 15 kDa; residues assigned up to I125; Isotope-labelled (15N and/or 13C) or unlabelled, depending on the experiment; also called Cox13-DPC complex; CoxVIa in mammals (homolog)
For B1, the binding [1] was “binds” and the binding [2] was “binds”.
